One substance from US12703730B2 (HANMI PHARM. CO., LTD., priority 2017, dated 2026) can be followed below.

This data set in a line: peptide synthesis. The note with it: conjugation step, HPLC reverse analysis.

With CA-GLP-2 RC-PEG(10K)-immunoglobulin Fc, the “final HPLC purity” value stood at 95.6%.
